{"source": "ChEMBL document CHEMBL1649351", "about": "“Synthesis, in vitro antimicrobial and in vivo antitumor evaluation of novel pyrimidoquinolines and its nucleoside derivatives” (Eur J Med Chem, 2011)", "tested_on": "Candida albicans", "experiment": "Antifungal activity against Candida albicans at 50 mg/disk after 5 days by agar disk diffusion method", "assay_type": "functional", "data": [{"sequence": "NYSTATIN", "values": [{"measurement": "inhibition zone (IZ)", "result": 20, "unit": "mm"}]}]}
